Laboratory results taken from article PMC12805590.
These are yes or no findings as the source states them, for the method shown. Binding seen in cells or lysates may run through a third protein. For part of these data: Binding calls can cover weak binding; strength is not graded here. For part of these data: Tags and fused reporters may be left off the sequences shown.

Experiments:
[1] = target: Flag–ARTS WT; test: co-IP; HEK293T cells cotransfected with Flag–ARTS, HA–Livin and Myc–SIAH1 (WT or mutants); IP with anti-Flag, anti-HA or anti-Myc, immunoblot
[2] = target: apoptosis-related protein in the transforming growth factor-β signaling pathway (ARTS) (human (endogenous in MDA-MB-231)); test: proximity ligation; Duolink In Situ PLA on fixed MDA-MB-231 cells under PBS, DOX or DTX
[3] = target: apoptosis-related protein in the transforming growth factor-β signaling pathway (ARTS) (human (endogenous in MDA-MB-231)); test: co-IP; anti-ARTS IP of endogenous proteins, whole-cell lysates (RIPA buffer) of MDA-MB-231 cells treated with DOX or DTX
[4] = target: apoptosis-related protein in the transforming growth factor-β signaling pathway (ARTS) (human (endogenous in MDA-MB-231)); test: co-IP; subcellular fractionation (nuclear/cytosolic/mitochondrial) and anti-ARTS IP, cells treated with DOX or DTX; complex in the cytosolic fraction
[5] = target: apoptosis-related protein in the transforming growth factor-β signaling pathway (ARTS) (human (endogenous in MDA-MB-231)); test: condition: only PBS-treated cells (without DOX or DTX); co-IP; anti-ARTS IP of endogenous proteins, whole-cell lysates (RIPA buffer) of PBS-treated MDA-MB-231 cells
[6] = target: apoptosis-related protein in the transforming growth factor-β signaling pathway (ARTS) (human (endogenous in MDA-MB-231)); test: condition: only with the caspase-8 inhibitor Z-IETD-FMK; co-IP; anti-ARTS IP of endogenous proteins, MDA-MB-231 cells treated with DOX or DTX plus the caspase-8 inhibitor Z-IETD-FMK

| binding [1] | binding [2] | binding [3] | binding [4] | binding [5] | binding [6] | Binder |
| --- | --- | --- | --- | --- | --- | --- |
| binds | – | – | – | – | – | Myc–SIAH1 WT (enzyme, UniProt Q8IUQ4 1-282) MSRQTATALPTGTSKCPPSQRVPALTGTTASNNDLASLFECPVCFDYVLPPILQCQSGHLVCSNCRPKLTCCPTCRGPLGSIRNLAMEKVANSVLFPCKYASSGCEITLPHTEKADHEELCEFRPYSCPCPGASCKWQGSLDAVMPHLMHQHKSITTLQGEDIVFLATDINLPGAVDWVMMQSCFGFHFMLVLEKQEKYDGHQQFFAIVQLIGTRKQAENFAYRLELNGHRRRLTWEATPRSIHEGIATAIMNSDCLVFDTSIAQLFAENGNLGINVTISMC |
| – | binds | binds | binds | no binding | no binding | Livin (BIRC7) (protein, UniProt Q96CA5 1-298) MGPKDSAKCLHRGPQPSHWAAGDGPTQERCGPRSLGSPVLGLDTCRAWDHVDGQILGQLRPLTEEEEEEGAGATLSRGPAFPGMGSEELRLASFYDWPLTAEVPPELLAAAGFFHTGHQDKVRCFFCYGGLQSWKRGDDPWTEHAKWFPSCQFLLRSKGRDFVHSVQETHSQLLGSWDPWEEPEDAAPVAPSVPASGYPELPTPRREVQSESAQEPGGVSPAEAQRAWWVLEPPGARDVEAQLRRLQEERTCKVCLDRAVSIVFVPCGHLVCAECAPGLQLCPICRAPVRSRVRTFLS |
